Experimental data published in PMC3582507.
No constants are given. Whether binding was seen depends on the method and setting. Some binding calls cover weakened binding; strength is not graded here.

Amino acid sequences for entries named in this document (tags omitted). A change or cut given only in a name is not applied to a line headed by its entry.
UniProt P19073: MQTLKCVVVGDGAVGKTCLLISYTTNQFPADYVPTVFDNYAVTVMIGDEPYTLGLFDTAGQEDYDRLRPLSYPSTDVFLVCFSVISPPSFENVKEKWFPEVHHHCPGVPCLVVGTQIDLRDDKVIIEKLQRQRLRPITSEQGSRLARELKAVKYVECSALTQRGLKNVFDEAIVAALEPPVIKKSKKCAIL

Assays:
Experiment in all cases: two-hybrid; genes or gene fragments cloned into pMM5 and pMM6, transformed into SGY37 and YPH500
[1] = molecular target: Cdc42 (S. cerevisiae) (UniProt P19073)
[2] = molecular target: Cdc42-D57Y (S. cerevisiae) (UniProt P19073)
[3] = molecular target: Cdc42-G12V (S. cerevisiae) (UniProt P19073)
[4] = molecular target: Cdc42-Q61L (S. cerevisiae) (UniProt P19073)
[5] = molecular target: Rho1 (S. cerevisiae) (UniProt P06780)
[6] = molecular target: Rho1-G19V (S. cerevisiae) (UniProt P06780)
[7] = molecular target: Rho1-G22A (S. cerevisiae) (UniProt P06780)
[8] = molecular target: T1, Rho1-Q68H (S. cerevisiae) (UniProt P06780)
T1 sequence: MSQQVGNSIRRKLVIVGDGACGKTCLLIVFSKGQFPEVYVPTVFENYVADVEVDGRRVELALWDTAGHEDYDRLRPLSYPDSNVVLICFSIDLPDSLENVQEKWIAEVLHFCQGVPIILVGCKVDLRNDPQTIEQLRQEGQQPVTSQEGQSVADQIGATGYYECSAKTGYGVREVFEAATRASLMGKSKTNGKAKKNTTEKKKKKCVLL

Measured: binding

B1: Gps1-1-290 (N-terminal 290 residues of Gps1) (domain or fragment, UniProt Q99299 1-290)
chain: MIIRAPIRTKTKSFRGDQMDFKFPSNESLPRGTLEEYHLNNHHLLNDVFAAENGVSRDEDGNSQTLSDYTSTSNTNTNSGYSSNGYYSFANISDNTTSSPRIVINQNETARLTSSDSNKSDFFASHDFPGNDSLHYSSSNVVKNQLHSMEAIPEGNITGSISTAFQTIPTADNVSYDIAPSSASSLLPRKSTSKSAILPSTQEAKPMTKLNMEKDIKTIELNNSVVPKPKKKLNRVPTIRRVESSRFSNSRYSSSVSSKSSSSRCSLKRSKAIRCKGGLLYYFTSLGIKI
binds: all assays above

B2: Gps1 (GTPase-mediated polarity switch 1) (protein, UniProt Q99299 1-758)
chain: MIIRAPIRTKTKSFRGDQMDFKFPSNESLPRGTLEEYHLNNHHLLNDVFAAENGVSRDEDGNSQTLSDYTSTSNTNTNSGYSSNGYYSFANISDNTTSSPRIVINQNETARLTSSDSNKSDFFASHDFPGNDSLHYSSSNVVKNQLHSMEAIPEGNITGSISTAFQTIPTADNVSYDIAPSSASSLLPRKSTSKSAILPSTQEAKPMTKLNMEKDIKTIELNNSVVPKPKKKLNRVPTIRRVESSRFSNSRYSSSVSSKSSSSRCSLKRSKAIRCKGGLLYYFTSLGIKIKKKLRKLRLVLRRRLFSYNVQKVPSATNSKTTKSKANINNKSKKRGTNLVNKNSNSTPRQKKSQRYVSNLQRSISSKSLVPVLAPQKKTKPLTVDTKFKANHPQSEDSKVGSNTPRSPLVSYTPSLRRTNSSIRRAASILTASATMTPANNKNSFISVPDNVSHAVTRNSSMYSRSRLVRSKPSTALNAIARQPSIVVENKVIPLSMNRYSIKEEDEYVIDTSSMRELSPVNSVCSSDYDRESSESYSNYADAMETTEVDNKDRVECNNEIQNVDANNEETSNEESYNLMKHYLSTVIAQRIMLRVQIARIQNYKSNVVYMNKSAETNSTIYEDLVDSLLTEYEADGSSSQIFDGVTVRADEEEEEDEDDEDDEEEEEENDDEEDEEDEEDDEDDEEEEEKRKEGEGRNLAKEVDELAELSPMRKQSDLSITLRSPFAMLNPAYSNSIISLPTGVVKRSLTLPVGMKI
binds: [1] | [5]
